According to US20160251404A1 (Molecular Partners, published 2016):
No constants are given. Whether binding was seen depends on the method and setting. Some binding calls cover weakened binding; strength is not graded here.

By UniProt entry, the sequences of proteins in these tests, tags left out. Residues count along the entry.
UniProt P14210, residues 32-728: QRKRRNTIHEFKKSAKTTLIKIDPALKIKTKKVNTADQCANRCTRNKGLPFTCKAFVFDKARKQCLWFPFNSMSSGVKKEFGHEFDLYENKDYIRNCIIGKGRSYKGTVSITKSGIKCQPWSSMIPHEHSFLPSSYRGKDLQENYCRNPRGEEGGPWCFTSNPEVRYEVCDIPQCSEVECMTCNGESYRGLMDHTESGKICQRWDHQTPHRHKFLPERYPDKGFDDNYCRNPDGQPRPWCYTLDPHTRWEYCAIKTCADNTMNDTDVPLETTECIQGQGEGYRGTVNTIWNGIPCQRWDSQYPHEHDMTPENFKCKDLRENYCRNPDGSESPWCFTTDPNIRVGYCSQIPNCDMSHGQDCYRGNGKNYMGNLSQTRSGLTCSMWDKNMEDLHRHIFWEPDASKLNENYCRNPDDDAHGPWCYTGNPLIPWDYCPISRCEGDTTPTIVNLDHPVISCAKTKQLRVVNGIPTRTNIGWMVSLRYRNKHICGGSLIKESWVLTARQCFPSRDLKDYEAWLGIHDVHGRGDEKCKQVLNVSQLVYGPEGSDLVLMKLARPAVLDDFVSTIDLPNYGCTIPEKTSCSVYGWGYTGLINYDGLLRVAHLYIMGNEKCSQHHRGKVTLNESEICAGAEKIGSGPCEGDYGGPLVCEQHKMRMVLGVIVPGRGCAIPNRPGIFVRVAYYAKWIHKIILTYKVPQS

Target: recombinant human HGF (hepatocyte growth factor) (human) (UniProt P14210)
Test: crude E. coli extract receptor competition ELISA (biotinylated HGF, c-Met-Fc on plate)

Binder | binding
DARPin #42 (designed binder) MRGSHHHHHHGSDLGKKLLEAARAGQDDEVRILMANGADVNAKYEDGLTPLHLAAFYGHLEIVEVLLKHGADVNATDAWGHTPLHLAAHYGHLEIVEVLLKYGADVNAIDTLGYTPLHLAANFGHLEIVEVLLKNGADVNAQDKFGKTAFDISIDNGNEDLAEILQKLN | binds
DARPin #41 (designed binder) MRGSHHHHHHGSDLGKKLLEAARAGQDDEVRILMANGADVNAKYEDGLTPLHLAAFYGHLEIVEVLLRHGADVNATDAWGHTPLHLAAYLGHLEIVEVLLKYGADVNAEDTEGYTPLHLAAMDGHLEIIEVLLKHGADVNAQDKFGKTAFDISIDNGNEDLAEILQKLN | binds
DARPin #43 (designed binder) MRGSHHHHHHGSDLGKKLLEAARAGQDDEVRILMANGADVNAKYEDGLTPLHLAAFYGHLEIVEVLLKHGADVNATDAWGHTPLHLAAYYGHLEIVEVLLKYGADVNTHDKEGMTALHLAALTGHLEIVEVLLKNGADVNAQDKFGKTAFDISIDNGNEDLAEILQKLN | binds
DARPin #33 (designed binder) MRGSHHHHHHGSDLGKKLLEAARAGQDDEVRILMANGADVNAHDYSGFTPLHLAAYYGHLEIVEVLLKHGADVNAFDDWGHTPLHLAARYGHLEIVEVLLKYGADVNAEDTEGYTPLHLAAMDGHLEIVEVLLKNGADVNAQDKFGKTAFDISIDNGNEDLAEILQKLN | binds
DARPin #34 (designed binder) MRGSHHHHHHGSDLGKKLLEAARAGQDDEVRILMANGADVNAIDYSGFTPLHLAAYYGHLEIVEVLLKHGADVNAFDDWGHTPLHLAARYGHLEIVEVLLKYGADVNAEDTEGYTPLHLAAMDGHLEIVEVLLKYGADVNAQDKFGKTAFDISIDNGNEDLAEILQKLN | binds
DARPin #35 (designed binder) MRGSHHHHHHGSDLGKKLLEAARAGQDDEVRILMANGADVNASDMSGFTPLHLAAFYGHLEIVEVLLKHGADVNAEDYWGHTPLHLAARYGHLEIVEVLLKYGADVNAEDTEGYTPLHLAAMDGHLEIVEVLLKHGADVNAQDKFGKTAFDISIDNGNEDLAEILQKLN | binds
DARPin #36 (designed binder) MRGSHHHHHHGSDLGKKLLEAARAGQDDEVRILMANGADVNANDDSGFTPLHLAAFYGHLELVEVLLKYGADVNATDRFGLTPLHLAAHYGHLEIVEVLLKHGDDVNAQDKFGKTAFDISIDNGNEDLAEILQKLN | binds
DARPin #37 (designed binder) MRGSHHHHHHGSDLGKKLLEAARAGQDDEVRILMANGADVNATDLTGFTPLHLAAYYGHLEIVEVLLKYGADVNADDRYGLTPLHLAANTGHLEIVEVLLKNGADVNASDSVGTTLLHLAAYIGHPEIVEVLLKYGADVNAQDKFGKTAFDISIDNGNEDLAEILQKLN | binds
DARPin #38 (designed binder) MRGSHHHHHHGSDLGKKLLEAARAGQDDEVRILMANGADVNATDANGFTPLHLAAFYGHLEIVEVLLKYGADVNAYDNFGLTPLHLAASYGHLEIVEVLLKNGADVYAQDKFGKTAFDISIDNGNEDLAEILQKLN | binds
DARPin #39 (designed binder) MRGSHHHHHHGSDLGKKLLEAARAGQDDEVRILMANGADVNAKYEDGLTPLHLAAFYGHLEIVEVLLKHGADVNATDAWGHTPLHLAASNGHLEIVEVLLKYGADVNASDTAGITPLHLAAHNGHLEIVEVVLKHGADVNAQDKFGKTAFDISIDNGNEDLAEILQKLN | binds
DARPin #40 (designed binder) MRGSHHHHHHGSDLGKKLLEAARAGQDDEVRILMANGADVNAKYEDGLTPLHLAAFYGHLEIVEVLLKHGADVNATDAWGHTPLHLAAAYGHLEIVEVLLKNGADVNAHDNVGDTPLHLAAMLGHLEIVEVLLKNGADVNAQDKFGKTAFDISIDNGNEDLAEILQKLN | binds
DARPin #44 (designed binder) MRGSHHHHHHGSDLGKKLLEAARAGQDDEVRILMANGADVNTHDNFGDTPLHLAASIGHLEIVEVLLKHGADVNAFDSYGDTPLHLAASSGHLEIVEVLLKYGADVNALDYNGNTPLHLAANSGRLEIVEVLLKHGADVNAQDKFGKTAFDISIDNGNEDLAEILQKLN | binds
DARPin #45 (designed binder) MRGSHHHHHHGSDLGKKLLEAARAGQDDEVRILMANGADVNAVDAWGDTPLHLAASIGHLEIVEVLLKNGADVNAADYYGDTPLHLAASAGHLEIVEVLLKYGADVNAQDDNGNTPLHLAANTGRLEIVEVLLKHGADVNAQDKFGKTAFDISIDNGNEDLAEILQKLN | binds
DARPin #46 (designed binder) MRGSHHHHHHGSDLGKKLLEAARAGQDDEVRILMANGADVNAIDTWGNTPLHLAADYGHLEIVEVLLKNGADVNALDWFGDTPLHLAASLGHLEIVEVLLKNGADVNAVDTYGNTPLHLAANTGRLEIVEVLLKYGADVNAQDKFGKTAFDISIDNGNEDLAEILQKLN | binds
DARPin #47 (designed binder) MRGSHHHHHHGSDLGKKLLEAARAGQDDEVRILMANGADVNAQDRWGDTPLHLAASAGHLKIVEVLLKYGADVNADDVFGDTPLHLAASLGHLEIVEVLLKYGADVNADDYAGNTPLHLAANTGHLEIVEVLLKHGADVNAQDKFGKTAFDISIDNGNEDLAEILQKLN | binds
DARPin #48 (designed binder) MRGSHHHHHHGSDLGKKLLEAARAGQDDEVRILMANGADVNAKDRFGDTPLHLAADIGHLKIVEVLLKHGADVNAEDWFGNTPLHLAASMGHLEIVEVLLKYGADVNAMDDYGNTPLHLAANTGHLEIVEVLLKHGADVNAQDKFGKTAFDISIDNGNEDLAEILQKLN | binds
DARPin #49 (designed binder) MRGSHHHHHHGSDLGKKLLEAARAGQDDEVRILMANGADVNAQDRWGDTPLHLAASAGHLKIVEVLLKYGADVNADDVFGDTPLHLAASLGHLEIVEVLLKYGADVNADDYAGNTPLHLAANTGHLEIVEVLLKYGADVNAQDKFGKTAFDISIDNGNEDLAEILQKLN | binds
DARPin #50 (designed binder) MRGSHHHHHHGSDLGKKLLEAARAGQDDEVRILMANGADVNAKDRYGDTPLHLAADIGHLEIVEVLLKAGADVNAEDYFGNTPLHLAASYGHLEIVEVLLKAGADVNAKDDYGNTPLHLAANTGHLEIVEVLLKAGADVNAQDKSGKTPADLAADAGHEDIAEVLQKLN | binds
DARPin #52 (designed binder) MRGSHHHHHHGSDLGKKLLEAARAGQDDEVRILLKAGADVNAKDRYGDTPLHLAADAGHLKIVEVLLKAGADVNAEDYFGNTPLHLAASAGHLEIVEVLLKAGADVNAKDDAGNTPLHLAANTGHLKIVEVLLKAGADVNAQDKSGKTPADLAADAGHEDIAEVLQKLN | binds
DARPin #53 (designed binder) MRGSHHHHHHGSDLGKKLLEAARAGQDDEVRILMANGADVNANDFLGLTPLHLAASTGHLEIVEVLLKYGADVNAIDAYGHTPLHLAANNGHLEIVEVLLKYGADVNAIDHFGYTPLHLAAMFGHLEIVEVLLKNGADVNAQDKFGKTAFDISIDNGNEDLAEILQKLN | binds
DARPin #54 (designed binder) MRGSHHHHHHGSDLGKKLLEAARAGQDDEVRILMANGADVNANDSSGLTPLHLAAFYGHLEIVEVLLKYGADVNADDDWGHTPLHLAAHYGHLEIVEVLLKHGADVNAIDTRGLTPLHLAAIAGHLEIVEVLLKYGADVNAQDKFGKTAFDISIDNGNEDLAEILQKLN | binds
DARPin #55 (designed binder) MRGSHHHHHHGSDLGKKLLEAARAGQDDEVRILMANGADVNASDDTGLTPLHLAANRGHLEIVEVLLKHGADVNANDFAGMTPLHLAANVGHLEIVEVLLKYGADVNAHDDYGLTPLHLAANWRHLEIVEVLLKNGADVNAQDKFGKTAFDISIDNGNEDLAEILQKLN | binds
DARPin #56 (designed binder) MRGSHHHHHHGSDLGKKLLEAARAGQDDEVRILMANGADVNANDFLGLTPLHLAASTGHLEIVEVLLKYGADVNAIDAYGHTPLHLAANNGHLEIVEVLLKYGADVNAIDHFGYTPLHLAAMFGHLEIVEVLLKNGADVNAQDKFGKTAFDISIDNGNEDLAEILQKLN | binds
DARPin #58 (designed binder) MRGSHHHHHHGSDLGKKLLEAARAGQDDEVRILMANGADVNAHDYVGLTPLHLAASIGHLEIVEVLLKYGADVNASDYNGFTPLYLAANNGHLEIVEVLLKNGADVNATDSFGYTPLHLAAHYGHLEIVEVLLKNGADVNAQDKFGKTAFDISIDNGNEDLAEILQKLN | binds
DARPin #59 (designed binder) MRGSHHHHHHGSDLGKKLLEAARAGQDDEVRILMANGADVNADDSLGLTPLHLAAASGHLEIVEVLLKNGADVNAVDQNSFTPLYLAANNGHLEIVEVLLKNGADVNAFDWHGTTPLHLAAMFGHLEIVEVLLKNGADVNAQDKFGKTAFDISIDNGNEDLAEILQKLN | binds
DARPin #60 (designed binder) MRGSHHHHHHGSDLGMKLLEAARAGQDDEVRILMANGADVNAHDTWGLTPLHLAAFHGHQEIVEVLLKHGADVNAQDFYGKTPLHLAALRGHLEIVEVLLKYGADVNAQDQFGKTAFDISIDNGNEDLAEILQKLN | binds
DARPin #61 (designed binder) MRGSHHHHHHGSDLGKKLLEAARAGQDDEVRILMANGADVNAEDYLGHTPLHLAASTGHLEIVEVLLKYGADVNAKDRNGLTPLYLAANNGHLEIVEDLLKYGADVNADDDNGTTPLHLAAIFGHLEIVEVLLKYGADVNAQDKFGKTAFDISIDNGNEDLAEILQKLN | binds

Target: recombinant human HGF (hepatocyte growth factor) (human) (UniProt P14210)
Test: receptor competition ELISA: DARPin premixed with human HGF, binding of HGF to coated c-Met (Fc chimera) detected; the blocked partner is c-Met

Binder | binding
DARPin #43 (designed binder) MRGSHHHHHHGSDLGKKLLEAARAGQDDEVRILMANGADVNAKYEDGLTPLHLAAFYGHLEIVEVLLKHGADVNATDAWGHTPLHLAAYYGHLEIVEVLLKYGADVNTHDKEGMTALHLAALTGHLEIVEVLLKNGADVNAQDKFGKTAFDISIDNGNEDLAEILQKLN | binds
